These are yes or no findings as the source states them, for the method shown. In cells and extracts the contact can be indirect. Here binding means that the protein was enriched with, or labelled near, the bait; the list need not be complete. For some assays here: No binding means not detected with the bait.
Columns and labels:
[1] = molecular target: E1A-binding protein, 300 kDa (p300), wild type (mouse (endogenous in P19)) (UniProt B2RWS6); experiment: affinity purification with mass spectrometry; P19 cells, the sentence does not tell whether wild type or edited; CBP or p300 immunoprecipitates from nuclear protein, beads suspended in 5% sodium deoxycholate, trypsin digest, LC-MS, 2DICAL
[2] = molecular target: cAMP response element binding protein (CREB)-binding protein (CBP) (mouse (endogenous in P19)) (UniProt P45481); experiment: as above
[3] = molecular target: cAMP response element binding protein (CREB)-binding protein (CBP) (mouse (endogenous in P19)) (UniProt P45481); experiment: affinity purification with mass spectrometry; p300-edited P19 cells; CBP or p300 immunoprecipitates from nuclear protein, beads suspended in 5% sodium deoxycholate, trypsin digest, LC-MS, 2DICAL
[4] = molecular target: E1A-binding protein, 300 kDa (p300), wild type (mouse (endogenous in P19)) (UniProt B2RWS6); experiment: affinity purification with mass spectrometry; wild type (parental) P19 cells; CBP or p300 immunoprecipitates from nuclear protein, beads suspended in 5% sodium deoxycholate, trypsin digest, LC-MS, 2DICAL
[5] = molecular target: cAMP response element binding protein (CREB)-binding protein (CBP) (mouse (endogenous in P19)) (UniProt P45481); experiment: as above

The chains behind the UniProt entries cited, without tags or fusion partners. Where a name states a change or a piece, a line headed by the entry shows the natural chain unless it says otherwise.
UniProt B2RWS6: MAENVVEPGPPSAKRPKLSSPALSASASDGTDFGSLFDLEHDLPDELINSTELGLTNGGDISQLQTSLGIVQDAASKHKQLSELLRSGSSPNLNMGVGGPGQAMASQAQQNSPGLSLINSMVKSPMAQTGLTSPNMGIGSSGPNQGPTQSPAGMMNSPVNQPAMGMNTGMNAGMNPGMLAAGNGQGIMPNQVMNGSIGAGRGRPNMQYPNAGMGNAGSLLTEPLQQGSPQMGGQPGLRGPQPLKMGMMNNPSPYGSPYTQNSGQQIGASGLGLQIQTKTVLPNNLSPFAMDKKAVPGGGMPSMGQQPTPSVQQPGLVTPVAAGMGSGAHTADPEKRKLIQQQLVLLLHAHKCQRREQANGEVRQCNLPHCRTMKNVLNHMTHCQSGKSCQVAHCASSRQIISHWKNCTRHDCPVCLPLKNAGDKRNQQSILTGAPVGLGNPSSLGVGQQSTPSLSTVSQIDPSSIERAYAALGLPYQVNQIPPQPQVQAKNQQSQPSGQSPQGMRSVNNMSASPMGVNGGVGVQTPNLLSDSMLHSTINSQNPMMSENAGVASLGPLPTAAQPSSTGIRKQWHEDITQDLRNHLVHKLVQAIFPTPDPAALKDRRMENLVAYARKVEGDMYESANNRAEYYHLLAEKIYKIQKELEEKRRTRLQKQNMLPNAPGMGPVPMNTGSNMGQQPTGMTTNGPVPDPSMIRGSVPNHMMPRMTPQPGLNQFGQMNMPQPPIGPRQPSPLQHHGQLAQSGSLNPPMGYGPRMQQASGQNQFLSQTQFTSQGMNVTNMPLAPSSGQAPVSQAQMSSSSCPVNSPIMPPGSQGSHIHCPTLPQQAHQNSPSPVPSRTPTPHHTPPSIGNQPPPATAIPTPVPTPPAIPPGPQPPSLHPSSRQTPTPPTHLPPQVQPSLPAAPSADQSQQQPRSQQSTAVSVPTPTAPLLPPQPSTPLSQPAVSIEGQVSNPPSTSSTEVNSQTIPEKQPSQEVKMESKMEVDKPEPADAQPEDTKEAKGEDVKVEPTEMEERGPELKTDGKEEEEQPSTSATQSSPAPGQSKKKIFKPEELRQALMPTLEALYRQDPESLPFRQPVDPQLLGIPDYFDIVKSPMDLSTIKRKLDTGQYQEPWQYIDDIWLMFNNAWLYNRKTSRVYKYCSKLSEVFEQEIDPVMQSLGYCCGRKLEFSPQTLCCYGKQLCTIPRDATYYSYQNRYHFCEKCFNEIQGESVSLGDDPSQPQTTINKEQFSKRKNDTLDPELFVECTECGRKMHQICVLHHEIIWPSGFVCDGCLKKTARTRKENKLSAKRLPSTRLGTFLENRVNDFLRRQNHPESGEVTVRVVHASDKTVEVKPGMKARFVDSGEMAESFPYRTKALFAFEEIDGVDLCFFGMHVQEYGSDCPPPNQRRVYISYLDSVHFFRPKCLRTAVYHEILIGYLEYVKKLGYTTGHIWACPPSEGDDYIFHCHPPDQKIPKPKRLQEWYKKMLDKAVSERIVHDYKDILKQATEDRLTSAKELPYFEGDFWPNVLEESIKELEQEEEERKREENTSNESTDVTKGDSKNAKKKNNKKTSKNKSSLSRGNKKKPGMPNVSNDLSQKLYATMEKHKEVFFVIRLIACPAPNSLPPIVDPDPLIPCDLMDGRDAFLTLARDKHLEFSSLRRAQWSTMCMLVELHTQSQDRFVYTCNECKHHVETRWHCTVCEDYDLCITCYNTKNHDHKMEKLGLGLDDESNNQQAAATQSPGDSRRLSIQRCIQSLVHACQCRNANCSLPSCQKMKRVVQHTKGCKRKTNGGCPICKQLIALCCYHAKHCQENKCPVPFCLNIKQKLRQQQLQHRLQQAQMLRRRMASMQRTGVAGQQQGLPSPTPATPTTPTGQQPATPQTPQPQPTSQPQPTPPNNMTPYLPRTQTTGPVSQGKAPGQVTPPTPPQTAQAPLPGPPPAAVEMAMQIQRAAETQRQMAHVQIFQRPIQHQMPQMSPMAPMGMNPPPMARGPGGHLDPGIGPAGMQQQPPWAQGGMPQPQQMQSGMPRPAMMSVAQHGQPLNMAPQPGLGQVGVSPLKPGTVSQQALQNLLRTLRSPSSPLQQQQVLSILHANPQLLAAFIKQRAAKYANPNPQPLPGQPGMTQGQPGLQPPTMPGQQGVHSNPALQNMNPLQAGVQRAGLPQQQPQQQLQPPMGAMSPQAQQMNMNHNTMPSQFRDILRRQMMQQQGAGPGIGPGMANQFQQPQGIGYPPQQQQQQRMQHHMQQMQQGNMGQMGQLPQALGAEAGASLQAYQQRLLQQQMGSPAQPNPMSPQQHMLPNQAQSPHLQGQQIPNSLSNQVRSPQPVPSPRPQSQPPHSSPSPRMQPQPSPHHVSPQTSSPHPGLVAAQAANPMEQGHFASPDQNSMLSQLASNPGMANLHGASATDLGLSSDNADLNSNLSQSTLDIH
UniProt P45481: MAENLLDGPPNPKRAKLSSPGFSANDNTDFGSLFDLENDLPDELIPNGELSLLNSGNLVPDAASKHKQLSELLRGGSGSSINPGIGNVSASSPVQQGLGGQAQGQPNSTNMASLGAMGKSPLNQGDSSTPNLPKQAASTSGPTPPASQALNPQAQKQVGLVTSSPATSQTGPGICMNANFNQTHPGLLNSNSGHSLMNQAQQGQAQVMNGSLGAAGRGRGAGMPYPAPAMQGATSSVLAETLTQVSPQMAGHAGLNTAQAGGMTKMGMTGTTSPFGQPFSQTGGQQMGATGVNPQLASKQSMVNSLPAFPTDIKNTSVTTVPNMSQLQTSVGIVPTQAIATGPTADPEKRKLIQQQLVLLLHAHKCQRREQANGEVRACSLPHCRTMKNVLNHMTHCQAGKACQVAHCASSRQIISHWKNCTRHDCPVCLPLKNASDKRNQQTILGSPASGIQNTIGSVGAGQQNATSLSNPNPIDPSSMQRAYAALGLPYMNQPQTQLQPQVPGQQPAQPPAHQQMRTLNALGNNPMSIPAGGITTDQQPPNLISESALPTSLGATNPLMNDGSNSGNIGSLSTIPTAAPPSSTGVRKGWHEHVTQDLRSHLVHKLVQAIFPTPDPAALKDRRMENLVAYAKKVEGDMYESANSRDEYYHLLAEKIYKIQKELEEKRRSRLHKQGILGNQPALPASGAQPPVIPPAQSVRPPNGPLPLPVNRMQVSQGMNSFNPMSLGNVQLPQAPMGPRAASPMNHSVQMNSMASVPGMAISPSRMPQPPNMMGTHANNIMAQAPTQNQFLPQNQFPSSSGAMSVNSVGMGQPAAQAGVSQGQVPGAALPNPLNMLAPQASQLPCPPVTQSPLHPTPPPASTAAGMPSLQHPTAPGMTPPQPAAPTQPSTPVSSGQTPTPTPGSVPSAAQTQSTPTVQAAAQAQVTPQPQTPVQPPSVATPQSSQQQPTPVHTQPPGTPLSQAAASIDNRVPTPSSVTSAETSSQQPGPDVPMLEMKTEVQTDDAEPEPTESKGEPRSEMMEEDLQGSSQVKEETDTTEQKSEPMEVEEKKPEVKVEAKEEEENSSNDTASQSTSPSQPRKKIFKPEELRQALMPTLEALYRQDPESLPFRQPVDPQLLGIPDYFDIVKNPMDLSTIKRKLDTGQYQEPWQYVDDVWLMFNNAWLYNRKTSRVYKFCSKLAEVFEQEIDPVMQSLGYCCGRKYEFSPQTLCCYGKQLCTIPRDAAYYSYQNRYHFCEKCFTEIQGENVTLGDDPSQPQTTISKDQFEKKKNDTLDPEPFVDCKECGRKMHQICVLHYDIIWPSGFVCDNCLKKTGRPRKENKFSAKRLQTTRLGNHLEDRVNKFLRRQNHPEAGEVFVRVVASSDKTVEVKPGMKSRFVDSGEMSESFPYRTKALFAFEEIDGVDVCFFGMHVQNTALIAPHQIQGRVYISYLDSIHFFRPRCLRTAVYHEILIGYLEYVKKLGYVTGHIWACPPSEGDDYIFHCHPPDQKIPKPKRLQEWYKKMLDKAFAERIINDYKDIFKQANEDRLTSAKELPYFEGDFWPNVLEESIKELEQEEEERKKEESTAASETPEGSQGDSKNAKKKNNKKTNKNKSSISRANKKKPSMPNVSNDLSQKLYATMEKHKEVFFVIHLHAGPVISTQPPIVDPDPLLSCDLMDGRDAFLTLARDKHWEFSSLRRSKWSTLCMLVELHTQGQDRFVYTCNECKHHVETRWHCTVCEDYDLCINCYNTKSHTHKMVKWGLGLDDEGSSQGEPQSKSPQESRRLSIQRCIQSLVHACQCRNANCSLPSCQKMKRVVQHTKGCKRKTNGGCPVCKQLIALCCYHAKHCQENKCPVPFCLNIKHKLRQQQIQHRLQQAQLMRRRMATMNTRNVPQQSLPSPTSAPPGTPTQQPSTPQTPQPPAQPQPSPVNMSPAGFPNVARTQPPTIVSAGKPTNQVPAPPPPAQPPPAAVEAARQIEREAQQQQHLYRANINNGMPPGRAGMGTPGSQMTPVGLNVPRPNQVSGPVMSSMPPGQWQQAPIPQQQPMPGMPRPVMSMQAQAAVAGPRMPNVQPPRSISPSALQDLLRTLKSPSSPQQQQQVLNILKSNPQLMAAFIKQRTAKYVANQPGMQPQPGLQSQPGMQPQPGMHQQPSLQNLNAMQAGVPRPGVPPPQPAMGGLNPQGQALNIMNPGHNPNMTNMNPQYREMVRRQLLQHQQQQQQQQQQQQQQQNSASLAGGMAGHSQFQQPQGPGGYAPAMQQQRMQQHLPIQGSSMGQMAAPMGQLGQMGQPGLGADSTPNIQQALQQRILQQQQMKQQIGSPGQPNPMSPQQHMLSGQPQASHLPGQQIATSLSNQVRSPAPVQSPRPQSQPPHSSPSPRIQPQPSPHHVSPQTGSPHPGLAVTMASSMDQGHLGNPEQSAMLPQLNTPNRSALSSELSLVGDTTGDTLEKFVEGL
UniProt Q61466: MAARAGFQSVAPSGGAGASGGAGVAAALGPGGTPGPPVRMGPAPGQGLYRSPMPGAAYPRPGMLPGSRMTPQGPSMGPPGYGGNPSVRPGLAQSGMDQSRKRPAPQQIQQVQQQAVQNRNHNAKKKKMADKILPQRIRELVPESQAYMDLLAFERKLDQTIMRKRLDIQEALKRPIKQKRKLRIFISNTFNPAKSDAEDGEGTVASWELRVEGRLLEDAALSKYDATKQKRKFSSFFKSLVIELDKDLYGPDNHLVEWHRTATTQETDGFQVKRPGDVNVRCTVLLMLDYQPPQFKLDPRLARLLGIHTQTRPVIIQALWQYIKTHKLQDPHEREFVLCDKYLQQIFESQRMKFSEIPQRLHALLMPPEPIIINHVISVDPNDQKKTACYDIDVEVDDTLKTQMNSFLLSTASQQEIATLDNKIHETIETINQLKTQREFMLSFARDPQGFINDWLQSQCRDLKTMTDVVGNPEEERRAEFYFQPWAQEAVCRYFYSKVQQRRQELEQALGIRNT
UniProt O88569: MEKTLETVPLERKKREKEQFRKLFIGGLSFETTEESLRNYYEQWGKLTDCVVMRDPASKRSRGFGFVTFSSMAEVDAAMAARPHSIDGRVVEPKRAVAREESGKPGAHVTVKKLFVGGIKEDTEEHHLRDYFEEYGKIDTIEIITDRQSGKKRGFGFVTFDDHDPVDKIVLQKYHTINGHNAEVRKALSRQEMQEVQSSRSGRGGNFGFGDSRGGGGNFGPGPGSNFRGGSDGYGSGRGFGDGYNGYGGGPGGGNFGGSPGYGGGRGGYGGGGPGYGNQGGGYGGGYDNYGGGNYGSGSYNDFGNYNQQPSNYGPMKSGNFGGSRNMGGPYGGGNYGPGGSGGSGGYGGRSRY
UniProt O54941: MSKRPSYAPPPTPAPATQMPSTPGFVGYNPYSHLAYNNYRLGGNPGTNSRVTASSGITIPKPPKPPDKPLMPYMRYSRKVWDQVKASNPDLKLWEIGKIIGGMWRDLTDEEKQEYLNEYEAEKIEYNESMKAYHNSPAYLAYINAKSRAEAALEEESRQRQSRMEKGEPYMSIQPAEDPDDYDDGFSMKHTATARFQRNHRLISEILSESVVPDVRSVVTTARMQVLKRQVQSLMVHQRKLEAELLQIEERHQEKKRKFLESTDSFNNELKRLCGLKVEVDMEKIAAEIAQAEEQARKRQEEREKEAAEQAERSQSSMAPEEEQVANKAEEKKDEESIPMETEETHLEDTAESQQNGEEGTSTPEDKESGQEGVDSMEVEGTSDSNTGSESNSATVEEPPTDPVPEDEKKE

binding [1] | binding [2] | binding [4] | Molecule | binding [3] | binding [5]
binds | binds |  | ARID2/BAF200 (from UniProt E9Q7E2 1-1828) |  | 
 |  | binds | SMARCD1 (BAF60A) (from UniProt Q61466 1-515) | no binding (only in p300-edited P19 cells) | binds
binds | binds |  | SMARCC1/BAF155 (from UniProt P97496 1-1104) |  | 
 |  | binds | heterogeneous nuclear ribonucleoprotein A2/B1 (ROA2) (from UniProt O88569 1-353) | binds | no binding (only in parental (wild type) P19 cells)
binds | binds |  | ARID1A/BAF250a (from UniProt A2BH40 1-2283) |  | 
 |  | binds | SMARCE1 (BAF57) (from UniProt O54941 1-411) |  | 
binds | binds |  | SMARCA4/Brg1 (from UniProt Q3TKT4 1-1613) |  | 
binds | binds |  | Brd7 (protein, UniProt O88665 1-651) MGKKHKKHKSDRHFYEEYVEKPLKLVLKVGGSEVTELSTGSSGHDSSLFEDRSDHDKHKDRKRKKRKKGEKQAPGEEKGRKRRRVKEDKKKRDRDRAENEVDRDLQCHVPIRLDLPPEKPLTSSLAKQEEVEQTPLQEALNQLMRQLQRKDPSAFFSFPVTDFIAPGYSMIIKHPMDFSTMKEKIKNNDYQSIEELKDNFKLMCTNAMIYNKPETIYYKAAKKLLHSGMKILSQERIQSLKQSIDFMSDLQKTRKQKERTDACQSGEDSGCWQREREDSGDAETQAFRSPAKDNKRKDKDVLEDKWRSSNSEREHEQIERVVQESGGKLTRRLANSQCEFERRKPDGTTTLGLLHPVDPIVGEPGYCPVRLGMTTGRLQSGVNTLQGFKEDKRNRVTPVLYLNYGPYSSYAPHYDSTFANISKDDSDLIYSTYGEDSDLPNNFSISEFLATCQDYPYVMADSLLDVLTKGGHSRSLQDLDMSSPEDEGQTRALDTAKEAEITQIEPTGRLESSSQDRLTALQAVTTFGAPAEVFDSEEAEVFQRKLDETTRLLRELQEAQNERLSTRPPPNMICLLGPSYREMYLAEQVTNNLKELTQQVTPGDVVSIHGVRKAMGISVPSPIVGNSFVDLTGECEEPKETSTAECGPDAS |  | 
